{
  "source": "patent US20260137819A1",
  "about": "(Radionetics Oncology, Inc., priority 2022, published 2026)",
  "key": {"[1]": {"test": "general procedure: Fmoc solid-phase peptide synthesis; CTC resin; PyBOP/DIPEA", "settings": "whole synthesis"}, "[2]": {"test": "general procedure: Fmoc solid-phase peptide synthesis; Rink amide resin (100-200 mesh, 0.62 mmol/g); 2-chlorotrityl chloride resin (1.1 mmol/g); Wang resin; PyBOP/DIPEA", "settings": "for step yield: late stage modification step"}, "[3]": {"test": "general procedure: Fmoc solid-phase peptide synthesis; Rink amide resin; PyBOP/DIPEA", "settings": "whole synthesis"}, "[4]": {"settings": "scale of the general procedure 100 mg resin/tube, total 5 tubes"}},
  "data": [
    {"substance": "1-(9H-fluoren-9-yl)-8,11,14,17,20-pentamethyl-3,7,10,13,16,19-hexaoxo-2-oxa-4,8,11,14,17.20-hexaazadocosan-22-oic acid", "values": [
      {"measurement": "isolated mass", "setting": "[1]", "result": 5.1183, "unit": "g"},
      {"measurement": "isolated yield", "setting": "[1]; overall, scale of the general procedure 100 mg resin/tube, total 5 tubes", "result": "overall yield 15.74%"},
      {"measurement": "final purity (method not given)", "setting": "[1]; [4]", "result": 98.5, "unit": "% purity"}
    ]},
    {"substance": "indium (III) 2,2′,2″-(10-(1-((3-(1-(3,5-dichlorophenyl)-3-(3,3-dimethylmorpholine-4-carbonyl)-7-methoxy-1,4-dihydrochromeno[4,3-c]pyrazol-8-yl)phenyl)amino)-3,6,9,12,15-pentamethyl-1,4,7,10, 13, 16,20-heptaoxo-3,6,9, 12, 15, 19-hexaazahenicosan-21-yl)-1,4, 7,10-tetraazacyclododecane-1,4,7-triyl)triacetate 1FA salt", "values": [
      {"measurement": "step yield", "setting": "[2]; 1FA salt", "result": 62, "unit": "%"}
    ]},
    {"substance": "3-amino-N-(14-((5-(1-(3,5-difluorophenyl)-3-(3,3-dimethylmorpholine-4-carbonyl)-7-methoxy-1,4-dihydrochromeno[4,3-c]pyrazol-8-yl) pyridin-3-yl)amino)-3,6,9,12-tetramethyl-2,5,8,11,14-pentaoxo-3,6,9,12-tetraazatetradecyl)-N-methylpropanamide", "values": [
      {"measurement": "step yield", "setting": "[2]", "result": 92, "unit": "%"}
    ]},
    {"substance": "(9H-fluoren-9-yl)methyl (1-((5-(1-(3,5-difluorophenyl)-3-(3,3-dimethylmorpholine-4-carbonyl)-7-methoxy-1,4-dihydrochromeno[4,3-c]pyrazol-8-yl) pyridin-3-yl)amino)-3,6,9, 12, 15-pentamethyl-1,4,7, 10, 13, 16-hexaoxo-3,6,9, 12, 15-pentaazaoctadecan-18-yl) carbamate", "values": [
      {"measurement": "conjugation yield", "setting": "[2]; conjugation step", "result": 66.4, "unit": "%"}
    ]},
    {"substance": "(4R,7R,10R,13R,16R)-4-(((R)-1-amino-1-oxopropan-2-yl) carbamoyl)-10-(4-(4((3-(1-(3,5-dichlorophenyl)-3-(3,3-dimethylmorpholine-4-carbonyl)-7-methoxy-1,4-dihydrochromeno|4,3-clpyrazol-8-yl)phenyl)amino)-4-oxobutanamido)butyl)-7,13-dimethyl-6,9,12,15-tetraoxo-16-((R)-2-(2-(4,7,10-tris(carboxymethyl)-1,4,7,10-tetraazacyclododecan-1-yl)acetamido) propanamido)-5,8,11,14-tetraazanonadecanedioic acid", "values": [
      {"measurement": "isolated mass", "setting": "[3]", "result": 193.8, "unit": "mg"},
      {"measurement": "final purity (method not given)", "setting": "[3]; [4]", "result": 97.1, "unit": "% purity"},
      {"measurement": "isolated yield", "setting": "[3]; [4]", "result": 29.1, "unit": "%"}
    ]},
    {"substance": "3-amino-N-(14-((3-(1-(3,5-dichlorophenyl)-3-(3,3-dimethylmorpholine-4-carbonyl)-7-methoxy-1,4-dihydrochromeno[4,3-c]pyrazol-8-yl)phenyl)amino)-3,6,9,12-tetramethyl-2,5,8,11, 14-pentaoxo-3,6,9,12-tetraazatetradecyl)-N-methylpropanamide", "values": [
      {"measurement": "step yield", "setting": "[2]", "result": 61, "unit": "%"}
    ]}
  ]
}
